For at least one compound, name, drawing or mass did not settle the structure.
Legend:
[1] = tested on: CT26 tumor cells; assay: CT26 liver metastatic model; details: 10 mg/kg intratumorally, single time, into the sc tumor
[2] = tested on: GL261 mouse glioma cells; assay: GL261 brain orthotopic model; details: 10 mg/kg intratumorally, single time, into the sc tumor

O=[P@]1(S)OC[C@H]2O[C@@H]3[C@H](F)[C@@H]2O[P@](=O)(S)OC[C@H]2O[C@H]([C@H](F)[C@@H]2O1)n1cnc2c(ncnc21)NC/C=C/CNc1ncnc2c1ncn23 [Compound (1a), (1R,3R,15E,28R,29R,30R,31R,34R,36R,39S,41R)-29,41-Difluoro-34,39-bis(sulfanyl)-2,33,35,38,40,42-hexaoxa-4,6,9,11,13,18,20,22,25,27-decaaza-34λ^5,39λ^5-diphosphaoctacyclo[28.6.4.1^3,36.1^28,31.0^4,8.0^7,12.0^19,24.0^23,27]dotetraconta-5,7,9,11,15,19,21,23,25-nonaene-34,39-dione]
activity towards the local sc tumors [1]: potent activity
activity at local sc tumors [2]: potent activity

— patent US11691990B2, “Salts of compounds and crystals thereof” (Eisai R&D Management Co., Ltd., priority 2018, dated 2023)
